Test results: PubChem BioAssay AID2685 (National Center for Advancing Translational Sciences (NCATS), 2010)
The list shows a part of the results. The main result of the screen is listed elsewhere. These columns were measured beside it and carry no call. Compounds called inactive in the main read-out are mostly missing here. The note in brackets gives the kind of curve behind each potency; many fits are weak.

Experiment: qHTS Assay for Lipid Storage Modulators in Drosophila S3 Cells;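 as to cell number change: cells counted by Cell Tracker Red CMTPX staining in the red channel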
Settings: BODIPY lipid droplet fluorescence, 18-24 h; for cell number change: measured here: cell count max response, cells fed with added oleic acid
Summary of the method: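 Laser-scanning cytometry quantifies lipid droplet accumulation (500–530 nm total intensity; droplet/cell object ratio) in oleic acid-fed (400 uM added) Drosophila S3 cells treated with a concentration series. 20 uM Triacsin C defined 100% inhibition.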

[1] = measured here: lipid fluorescence (Fed channel) AC50, cells fed with added oleic acid
[2] = measured here: cell number channel AC50, cells fed with added oleic acid

Compound	cell number change [%]	AC50 [1]	AC50 [2]
O=C(O)CN1C(=O)CC(Cc2ccccc2)C1=O (stereo not given)	-9.76	25.9 µM [falling, single point]	
Cc1cccc(-n2ccnc2SCC(=O)Nc2ccc3c(c2)OCCO3)c1		6.51 µM [rising, single point]	
O=C(C=C1CCN(c2ncc(C(F)(F)F)cc2Cl)CC1)NNC(=O)Nc1ccc(Cl)cc1	-29.3	0.326 µM [falling, full curve]	0.82 µM [falling, full curve, poor fit]
COc1ccc(OC)c(-c2cn(S(=O)(=O)c3ccccc3)nc2N)c1	22.7	0.146 µM [rising, full curve]	0.0731 µM [rising, full curve]
O=C(CCn1nnnc1CN1CCOCC1)N1CCC(c2ccccc2Cl)C1 (stereo not given)	-4.88		
COc1ccc(S(=O)(=O)NCc2ccccc2)cc1Br	2.91		
COc1ccc(/C=N/NC(=O)c2cccc([N+](=O)[O-])c2)cc1OC(=O)c1ccc(C)cc1	-33.5	18.4 µM [falling, single point]	14.6 µM [falling, single point]
O=C(O)c1cn(Cc2ccccn2)c(=O)c2ccccc12	-12.2		
CCCCn1c(N)c(N(CCOC)C(=O)C2CCN(C(=O)c3ccc(Cl)cc3)CC2)c(=O)[nH]c1=O			4.61 µM [rising, single point]
O=C(O)CSc1ncccc1C(=O)O	-1.14	6.51 µM [rising, single point]	
CC(=O)Nc1ccc(N2CCCCC2)cc1	90.5	23.1 µM [rising, partial curve]	29.1 µM [rising, single point]
C[C@@H](CN1C2=NC[C@H](C)N2C[C@H]1Cc1ccc(O)cc1)NC(=O)CCC1CCCCC1	-3.01		0.13 µM [falling, full curve, poor fit]
CCn1c(SCC(=O)NCc2ccc3c(c2)OCO3)nc2c(c1=O)SCC2	2.64		
OCCC1CN(CCCn2cccn2)CCN1Cc1ccccc1 (stereo not given)	11	29.1 µM [rising, single point]	
COc1ccc(S(=O)(=O)c2c(C)c(NS(=O)(=O)c3ccccc3)cc(C)c2O)cc1	5.31	0.00461 µM [rising, full curve, poor fit]	
CCOC(=O)c1c(C)n(C)c2ccc(OC)c(NS(=O)(=O)c3ccc(Cl)s3)c12	-13.4		
O=C(CCC(=O)N1CCOc2ccc(Cl)cc21)NCc1ccccc1	-14.1	20.6 µM [falling, single point]	
CCC(=O)NCCc1nc2cc(NC(=O)c3ccco3)ccc2n1C	-7.89	6.31 µM [rising, single point]	
Cc1onc(-c2ccccc2)c1C(=O)OCCOc1cccc(Cl)c1	28.7		
O=[N+]([O-])c1ccc(/C=N/NC(=S)Nc2ccc(Cl)cc2Cl)s1	-22.9	29.1 µM [falling, single point]	
Nc1ccc(N2CCCCC2)c2nonc12	-22.2	6.51 µM [falling, partial curve]	

Compound	cell number change [%]	AC50 [1]	AC50 [2]
COCCCNCCOCCOc1ccc(Cl)cc1C(C)(C)C	1.94	4.61 µM [falling, full curve]	
CCn1c(SCc2nc3sc(C(=O)O)c(C)c3c(=O)[nH]2)nnc1-c1ccc(Cl)cc1	-32.1		
Cc1ccc2nc(NC(=O)CSCC(=O)Nc3cc(C)on3)sc2c1	-44.5	0.146 µM [falling, full curve, poor fit]	8.2 µM [falling, single point]
Cn1c(=O)c2c(nc(CN3CCN(Cc4ccccc4)CC3)n2Cc2ccc(Cl)cc2)n(C)c1=O	-23	0.00517 µM [rising, full curve, poor fit]	
O=C(CN1CCCCCC1)N/N=C/c1cccc(Cl)c1	-4.65		6.51 µM [rising, single point]
CCCC1C(C#N)=C(N)Oc2n[nH]c(C(C)(C)C)c21 (stereo not given)		3.66 µM [rising, partial curve]	3.26 µM [rising, partial curve]
COc1ccc(C(=O)NCc2ccccc2CN2CCCC2)cc1S(=O)(=O)N1CCOCC1	-1.87	0.206 µM [rising, full curve, poor fit]	
CCOc1ccc(C(C)C)cc1S(=O)(=O)n1ccnc1C	6.86		
Cc1[nH]c2c([N+](=O)[O-])cccc2c1C	-0.874	6.51 µM [falling, single point]	3.66 µM [falling, single point]
CCCCOc1ccc(CN=C(N)N)cc1Cl	-2.17		
Cc1cc(-c2ccccc2)nc2cc(C(=O)NCc3ccco3)nn12	-1.6	4.11 µM [rising, single point]	
O=C(Cn1ncc2c3ccccc3n(Cc3ccccc3)c2c1=O)N1CCN(c2ccccn2)CC1	10.1	0.13 µM [rising, full curve, poor fit]	
O=C(c1ccc2c(c1)OCO2)N1CCN(c2cccc(C(F)(F)F)c2)CC1	-16.7	0.00461 µM [rising, full curve, poor fit]	
O=C(NCc1cccs1)C1CCCN(C(=O)Nc2ccc(F)cc2)C1 (stereo not given)	11.8		
COc1ccc(OC)c(CN2C(=O)CCC2(C)C(=O)NC2CCCCCC2)c1 (stereo not given)	-59.2	4.11 µM [falling, partial curve]	5.8 µM [falling, partial curve]
Clc1ccc(CNc2ncccn2)cc1	33.3		32.6 µM [rising, single point]
O=C(O/N=C1\CCCc2ccccc21)C1CC1	54.8		
O=C(Nc1ccc(Cl)cc1)c1cc2nc(C3CC3)cc(C(F)(F)F)n2n1	71		18.4 µM [rising, single point]
Cc1cc(O)c(C(=O)/C=C/c2ccc(C(C)C)cc2)c(=O)o1	146		29.1 µM [rising, single point]
OC(COc1c(F)cc(Br)cc1F)CN1CCN(c2ccc(F)cc2)CC1 (stereo not given)	-55.8	29.1 µM [falling, single point]	29.1 µM [falling, single point]
FC(F)(F)c1cc(NCc2cccs2)n2ncnc2n1		6.51 µM [falling, single point]	

Complete entries from above:
O=C(c1ccc2c(c1)OCO2)N1CCN(c2cccc(C(F)(F)F)c2)CC1 in the list: cell number change [%]: -16.7; AC50 [1]: 0.00461 µM [rising, full curve, poor fit]
OC(COc1c(F)cc(Br)cc1F)CN1CCN(c2ccc(F)cc2)CC1 (stereo not given) in the list: cell number change [%]: -55.8; AC50 [1]: 29.1 µM [falling, single point]; AC50 [2]: 29.1 µM [falling, single point]
O=C(NCc1cccs1)C1CCCN(C(=O)Nc2ccc(F)cc2)C1 (stereo not given) in the list: cell number change [%]: 11.8
O=C(Nc1ccc(Cl)cc1)c1cc2nc(C3CC3)cc(C(F)(F)F)n2n1 in the list: cell number change [%]: 71; AC50 [2]: 18.4 µM [rising, single point]

(more compounds)

Compound	cell number change [%]	AC50 [1]	AC50 [2]
Cc1nn(-c2ccc(F)cc2)c2sc(C(=O)N3CCCCCC3)cc12		4.11 µM [rising, partial curve]	
CC1CN(Cc2csc(-c3ccc(Cl)cc3)n2)CC(C)O1 (stereo not given)	4.33	2.91 µM [rising, single point]	
CCOc1ccccc1NC(=O)CCCNC(=O)Cn1cnc2sc(C)c(C)c2c1=O	27.9	29.1 µM [rising, single point]	
O=C(CSc1cnc2ccccc2n1)NC1CCCC1	35.7	0.13 µM [falling, full curve, poor fit]	
C=CCn1c2ccccc2c2n[nH]c(=S)nc21	-4.67		
CCOc1ccc(CCN2C(=O)C(=O)N([C@H](CCCN(C)Cc3ccccc3)CNCc3ccccc3)C[C@@H]2C(C)C)cc1	1.31	6.51 µM [falling, single point]	6.51 µM [falling, single point]
Cc1c(C(=O)O)cnc2c([N+](=O)[O-])cnn12	-6.78	0.58 µM [falling, single point]	
Cn1nc(C(C)(C)C)c([N+](=O)[O-])c1C(N)=O	-32.3		
Cc1ccc(NC2=C/C(=N/S(=O)(=O)c3cccs3)c3ccccc3C2=O)cc1C	125		29.1 µM [rising, single point]
CC(NC(=O)c1ccccc1NC(=O)CN1CCc2ccccc2C1)c1ccccc1 (stereo not given)	11.3		
CC(=O)C(C)Oc1cc(C)cc2oc(=O)c(C)c(C)c12 (stereo not given)	39.1		7.31 µM [rising, partial curve, poor fit]
Cc1cccc(Nc2c([N+](=O)[O-])ccc3nonc23)c1		6.51 µM [rising, single point]	
C[C@H](NC(=O)c1nc[nH]c1C(=O)N[C@@H](C)c1ccccc1)c1ccccc1	-46.5		16.4 µM [falling, single point]
CC1Cc2ccccc2N1c1ncnc2c1nnn2Cc1ccccc1 (stereo not given)	-14	1.3 µM [rising, full curve, poor fit]	
CCOC(=O)c1cnn2c(C(F)(F)F)cc(-c3cn(C)nc3C)nc12	6.47	0.461 µM [rising, full curve, poor fit]	
COc1ccc(CCNC(=O)c2nn(C)c3c2CS(=O)(=O)c2ccccc2-3)cc1OC	-23.7		4.11 µM [falling, full curve, poor fit]
COCCSc1ccccc1C(=O)Nc1cc(C)ccn1	-0.569		
CCN(CC)CCNC(=O)c1cc(-c2cccnc2)nc2ccc(S(=O)(=O)N3CCC(C)CC3)cc12	4.42	29.1 µM [rising, single point]	
CC(C)(C)c1ccc(Cn2nnc3c(=O)[nH]c(C4CCCN(C(=O)c5cccs5)C4)nc32)cc1 (stereo not given)	-13.2	35.5 µM [rising, single point]	
CCOCCCNC(=O)c1c[nH]c2ccc(S(=O)(=O)Nc3cccc(OC)c3)cc2c1=O		0.58 µM [rising, single point]	0.651 µM [rising, single point]
COc1ccc2c3c(cccc13)C(=O)N(O)C2=O	45.8		18.4 µM [rising, single point]
